Results as given in publication PMC2635935.
No constants are given. Whether binding was seen depends on the method and setting. In cells and extracts the contact can be indirect. Sequences can lack the tags named with a protein.

The chains behind the UniProt entries cited, without tags or fusion partners. Where a name states a change or a piece, a line headed by the entry shows the natural chain unless it says otherwise.
UniProt P46060: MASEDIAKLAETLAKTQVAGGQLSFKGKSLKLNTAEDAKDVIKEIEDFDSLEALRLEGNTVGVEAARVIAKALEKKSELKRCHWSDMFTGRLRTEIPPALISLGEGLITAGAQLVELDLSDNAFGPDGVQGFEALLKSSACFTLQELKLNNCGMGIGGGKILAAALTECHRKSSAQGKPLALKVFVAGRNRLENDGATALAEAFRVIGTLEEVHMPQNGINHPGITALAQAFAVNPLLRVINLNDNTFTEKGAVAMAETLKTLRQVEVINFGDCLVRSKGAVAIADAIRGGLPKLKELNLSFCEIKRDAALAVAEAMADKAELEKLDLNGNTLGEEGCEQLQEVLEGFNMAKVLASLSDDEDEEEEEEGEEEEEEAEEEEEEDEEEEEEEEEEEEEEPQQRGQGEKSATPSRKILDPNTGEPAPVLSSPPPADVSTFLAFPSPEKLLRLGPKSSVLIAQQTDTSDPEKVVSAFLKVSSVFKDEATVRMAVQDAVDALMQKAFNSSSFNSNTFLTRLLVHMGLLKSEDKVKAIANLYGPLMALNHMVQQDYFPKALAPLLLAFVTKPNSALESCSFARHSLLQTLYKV

Target: T1, HA-Cystatin B (UniProt P01041)
T1 sequence: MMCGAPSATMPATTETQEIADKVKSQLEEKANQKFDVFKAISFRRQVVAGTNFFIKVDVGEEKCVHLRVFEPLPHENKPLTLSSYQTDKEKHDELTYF
Experiment: co-IP; 293T cells 24 hr after transfection, lysed in RIPA buffer (300 mM NaCl, 0.5% NP40, 20 mM Hepes KOH pH 8, 20% Glycerol, 2 mM DTT, 0.4 mM EDTA) and sonicated; 400 µg extract immunoprecipitated overnight with anti-HA abs on Protein A-Sepharose; western blot

Substance	binding
Flag-ARIP3 wt (aa 1–572) (from UniProt Q6AZ28 1-572) (enzyme)	no binding
Ubc9 (pRK7, expressed in 293T cells) (from UniProt P63281 1-158) (enzyme)	no binding
sumoylated RanGAP1 (approximately 90 Kd) (from UniProt P46060 1-587; P63165 1-97) (complex)	no binding
